Source: PubChem BioAssay AID1259308 (NCATS, 2017)
Purpose: 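Genes whose loss raises luciferase production in HEK293 cells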 (primary screen). Cell system: human HEK293 embryonic kidney cells stably expressing firefly luciferase (HEK-CMV-Luc2-Hygro). Knock-down reagent: single siRNA against human genes, 0.8 pmol siRNA per well. Timing: 72 h. Measured: 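Luciferase light (ONE-Glo) measured on one replicate plate set and viability (CellTiter-Glo) on the other, scaled to a negative control siRNA, with robust z-scores and luciferase per cell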. Scale: total luciferase, z-score and total luciferase, % of control: higher = more reporter protein produced. Rule for the call: 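Active when the median/MAD z-score for overall luciferase is greater than 3; a gene was taken forward for validation with new siRNAs if at least two of its three siRNAs passed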. Calls: active = raised luciferase; inactive = no rise.
Here is one part, drawn at random, of about 59,000 reagents. About 1,510 of all reagents (2.6%) were called active. 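Calls use total luciferase alone and ignore viability, so some active siRNAs may act by altering cell number.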 Reagents against one gene are numbered here. Not all columns of the deposit are shown.

RCBTB1 (RCC1 and BTB domain containing protein 1) #1
- total luciferase, z-score: -0.315
- total luciferase, % of control: 75.6
- activity call: inactive

RCBTB1 (RCC1 and BTB domain containing protein 1) #2
- total luciferase, z-score: -1.04
- total luciferase, % of control: 61.2
- activity call: inactive

RCBTB1 (RCC1 and BTB domain containing protein 1) #3
- total luciferase, z-score: 0.459
- total luciferase, % of control: 91
- activity call: inactive

KLRG2 (killer cell lectin like receptor G2) #1
- total luciferase, z-score: 2.19
- total luciferase, % of control: 125
- activity call: inactive

KLRG2 (killer cell lectin like receptor G2) #2
- total luciferase, z-score: -0.645
- total luciferase, % of control: 69
- activity call: inactive

KLRG2 (killer cell lectin like receptor G2) #3
- total luciferase, z-score: -0.792
- total luciferase, % of control: 66.1
- activity call: inactive

CKB (creatine kinase B) #1
- total luciferase, z-score: -0.373
- total luciferase, % of control: 74.5
- activity call: inactive

CKB (creatine kinase B) #2
- total luciferase, z-score: 0.243
- total luciferase, % of control: 86.7
- activity call: inactive

CKB (creatine kinase B) #3
- total luciferase, z-score: -0.606
- total luciferase, % of control: 69.8
- activity call: inactive

TLK1 (tousled like kinase 1) #1
- total luciferase, z-score: -2.11
- total luciferase, % of control: 39.9
- activity call: inactive

TLK1 (tousled like kinase 1) #2
- total luciferase, z-score: -0.0169
- total luciferase, % of control: 81.5
- activity call: inactive

TLK1 (tousled like kinase 1) #3
- total luciferase, z-score: 1.19
- total luciferase, % of control: 106
- activity call: inactive

CNR1 (cannabinoid receptor 1) #1
- total luciferase, z-score: 0.878
- total luciferase, % of control: 99.4
- activity call: inactive

CNR1 (cannabinoid receptor 1) #2
- total luciferase, z-score: -0.164
- total luciferase, % of control: 78.6
- activity call: inactive

CNR1 (cannabinoid receptor 1) #3
- total luciferase, z-score: 1.26
- total luciferase, % of control: 107
- activity call: inactive

TM4SF20 (transmembrane 4 L six family member 20) #1
- total luciferase, z-score: -1.1
- total luciferase, % of control: 60
- activity call: inactive

TM4SF20 (transmembrane 4 L six family member 20) #2
- total luciferase, z-score: 1.07
- total luciferase, % of control: 103
- activity call: inactive

TM4SF20 (transmembrane 4 L six family member 20) #3
- total luciferase, z-score: -2.03
- total luciferase, % of control: 41.6
- activity call: inactive

SLC3A2 #1
- total luciferase, z-score: -0.623
- total luciferase, % of control: 69.5
- activity call: inactive

SLC3A2 #2
- total luciferase, z-score: -0.636
- total luciferase, % of control: 69.2
- activity call: inactive

SLC3A2 #3
- total luciferase, z-score: 0.413
- total luciferase, % of control: 90.1
- activity call: inactive

RAB36 (RAB36, member RAS oncogene family) #1
- total luciferase, z-score: -0.535
- total luciferase, % of control: 71.2
- activity call: inactive

RAB36 (RAB36, member RAS oncogene family) #2
- total luciferase, z-score: 2.33
- total luciferase, % of control: 128
- activity call: inactive

RAB36 (RAB36, member RAS oncogene family) #3
- total luciferase, z-score: -0.274
- total luciferase, % of control: 76.4
- activity call: inactive

ZNF398 (zinc finger protein 398) #1
- total luciferase, z-score: 0.314
- total luciferase, % of control: 88.1
- activity call: inactive

ZNF398 (zinc finger protein 398) #2
- total luciferase, z-score: -0.406
- total luciferase, % of control: 73.8
- activity call: inactive

ZNF398 (zinc finger protein 398) #3
- total luciferase, z-score: 2.1
- total luciferase, % of control: 124
- activity call: inactive

TREML2 (triggering receptor expressed on myeloid cells like 2) #1
- total luciferase, z-score: 2.21
- total luciferase, % of control: 126
- activity call: inactive

TREML2 (triggering receptor expressed on myeloid cells like 2) #2
- total luciferase, z-score: -0.215
- total luciferase, % of control: 77.6
- activity call: inactive

TREML2 (triggering receptor expressed on myeloid cells like 2) #3
- total luciferase, z-score: 0.696
- total luciferase, % of control: 95.7
- activity call: inactive

SPACA6 (sperm acrosome associated 6) #1
- total luciferase, z-score: 2.38
- total luciferase, % of control: 129
- activity call: inactive

SPACA6 (sperm acrosome associated 6) #2
- total luciferase, z-score: 0.551
- total luciferase, % of control: 92.9
- activity call: inactive

SPACA6 (sperm acrosome associated 6) #3
- total luciferase, z-score: 2.09
- total luciferase, % of control: 123
- activity call: inactive

Part of the list above in another layout.
gene	siRNA no.	total luciferase, z-score	total luciferase, % of control	activity call
RCBTB1 (RCC1 and BTB domain containing protein 1)	3	0.459	91	inactive
KLRG2 (killer cell lectin like receptor G2)	1	2.19	125	inactive
KLRG2 (killer cell lectin like receptor G2)	2	-0.645	69	inactive
KLRG2 (killer cell lectin like receptor G2)	3	-0.792	66.1	inactive
CKB (creatine kinase B)	1	-0.373	74.5	inactive
